Reference: PMC12847810
No constants are given. Whether binding was seen depends on the method and setting. Binding seen in cells or lysates may run through a third protein. Some results given as binding are weak or reduced against the parent protein; the word gives no strength.

Chains of the proteins cited; added tags and fusions are not shown.
UniProt Q9Y2H1: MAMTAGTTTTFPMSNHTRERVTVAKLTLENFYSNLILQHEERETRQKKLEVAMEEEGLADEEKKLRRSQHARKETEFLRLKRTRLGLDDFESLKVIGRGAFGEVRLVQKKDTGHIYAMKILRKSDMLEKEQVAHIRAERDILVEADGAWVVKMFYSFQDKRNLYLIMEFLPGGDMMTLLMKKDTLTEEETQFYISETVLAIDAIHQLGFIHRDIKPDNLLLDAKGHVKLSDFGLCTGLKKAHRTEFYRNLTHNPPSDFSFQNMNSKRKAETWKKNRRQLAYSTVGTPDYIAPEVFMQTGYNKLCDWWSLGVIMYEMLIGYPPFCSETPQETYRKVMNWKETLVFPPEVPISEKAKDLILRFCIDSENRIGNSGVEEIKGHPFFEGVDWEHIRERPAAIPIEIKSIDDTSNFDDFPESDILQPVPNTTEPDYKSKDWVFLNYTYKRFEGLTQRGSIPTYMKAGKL

Target: nuclear Dbf2-related kinase 2 (NDR2) (human (endogenous in H2030)) (UniProt Q9Y2H1)
Assay: co-IP; Pierce Co-IP Kit on extracts from T75-flask cultures of H2030 cells, non-transfected or transfected with NDR2 PIF, NDR2 KD or empty pcDNA3

binding: binds
B1: ATG9A (protein, UniProt Q7Z3C6 1-839)
chain: MAQFDTEYQRLEASYSDSPPGEEDLLVHVAEGSKSPWHHIENLDLFFSRVYNLHQKNGFTCMLIGEIFELMQFLFVVAFTTFLVSCVDYDILFANKMVNHSLHPTEPVKVTLPDAFLPAQVCSARIQENGSLITILVIAGVFWIHRLIKFIYNICCYWEIHSFYLHALRIPMSALPYCTWQEVQARIVQTQKEHQICIHKRELTELDIYHRILRFQNYMVALVNKSLLPLRFRLPGLGEAVFFTRGLKYNFELILFWGPGSLFLNEWSLKAEYKRGGQRLELAQRLSNRILWIGIANFLLCPLILIWQILYAFFSYAEVLKREPGALGARCWSLYGRCYLRHFNELEHELQSRLNRGYKPASKYMNCFLSPLLTLLAKNGAFFAGSILAVLIALTIYDEDVLAVEHVLTTVTLLGVTVTVCRSFIPDQHMVFCPEQLLRVILAHIHYMPDHWQGNAHRSQTRDEFAQLFQYKAVFILEELLSPIVTPLILIFCLRPRALEIIDFFRNFTVEVVGVGDTCSFAQMDVRQHGHPQWLSAGQTEASVYQQAEDGKTELSLMHFAITNPGWQPPRESTAFLGFLKEQVQRDGAAASLAQGGLLPENALFTSIQSLQSESEPLSLIANVVAGSSCRGPPLPRDLQGSRHRAEVASALRSFSPLQPGQAPTGRAHSTMTGSGVDARTASSGSSVWEGQLQSLVLSEYASTEMSLHALYMHQLHKQQAQAEPERHVWHRRESDESGESAPDEGGEGARAPQSIPRSASYPCAAPRPGAPETTALHGGFQRRYGGITDPGTVPRVPSHFSRLPLGGWAEDGQSASRHPEPVPEEGSEDELPPQVHKV
